Laboratory results taken from publication PMC4937415.
These are yes or no findings as the source states them, for the method shown. In cells and extracts the contact can be indirect. Some entries that bind do so weakly or less than the wild type.

Protein sequences, listed by entry. Tags and fused reporters are not part of them.
UniProt P27695: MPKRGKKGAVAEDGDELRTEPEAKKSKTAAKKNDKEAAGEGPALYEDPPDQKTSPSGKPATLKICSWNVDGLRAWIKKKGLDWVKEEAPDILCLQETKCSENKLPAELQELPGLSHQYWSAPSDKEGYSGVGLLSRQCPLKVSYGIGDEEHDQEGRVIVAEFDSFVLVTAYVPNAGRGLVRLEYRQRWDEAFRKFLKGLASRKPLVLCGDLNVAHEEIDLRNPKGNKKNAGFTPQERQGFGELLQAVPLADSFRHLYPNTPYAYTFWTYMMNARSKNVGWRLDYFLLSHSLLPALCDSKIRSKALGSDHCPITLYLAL

Target: FH-APE1 (N-terminal FLAG-HA tagged APE1) (human) (UniProt P27695)
Assay: co-IP; anti-FLAG (M2) beads, total extracts of HeLaS cells expressing FH-APE1 (untreated or 25 μM H2O2 for 1 h) or empty vector; 4 h at 4 °C; blot with anti-PRDX1

binding: binds
B1: Peroxiredoxin 1 (PRDX1) (protein, UniProt Q06830 1-199)
chain: MSSGNAKIGHPAPNFKATAVMPDGQFKDISLSDYKGKYVVFFFYPLDFTFVCPTEIIAFSDRAEEFKKLNCQVIGASVDSHFCHLAWVNTPKKQGGLGPMNIPLVSDPKRTIAQDYGVLKADEGISFRGLFIIDDKGILRQITVNDLPVGRSVDETLRLVQAFQFTDKHGEVCPAGWKPGSDTIKPDVQKSKEYFSKQK
